Patent US20110046067A1, “COMPOSITIONS COMPRISING HUMAN EGFR-siRNA AND METHODS OF USE” (Intradigm Corporation, priority 2007, published 2011)
Some results were stated once for a whole list of compounds, not compound by compound.

Test system: hEGFR
Assay: hEGFR protein knockdown screen in HT-29 cells (electroporation, hEGFR ELISA)
Type: cell-based, human
Conditions: 4 or 8 ug siRNA per 2×10^6 cells/200 ul, 72 hours post transfection, normalized against mock without siRNA

5′-r(CACAGUGGAGCGAAUUCCUUUGGAA)-3′ (chain 2 UUCCAAAGGAAUUCGCUCCACUGUG; siRNA; RNA, backbone not given here) [hEGFR-25-1]
inhibition of hEGFR protein: more than 70%

5′-r(CGCAAAGUGUGUAACGGAAUAGGUA)-3′ (chain 2 UACCUAUUCCGUUACACACUUUGCG; siRNA; RNA, backbone not given here) [hEGFR-25-2]
inhibition of hEGFR protein: more than 70%
